Test results from patent US4703048A, “Novel 1-benzhydryl-4-cinnamylpiperazine derivatives, and pharmaceutical compositions comprising said compounds as active ingredient for treating a cerebrovascular disease” (Kanebo Ltd., priority 1985, dated 1987).

Test system: vertebral blood flow
Assay: Activity of increasing cerebral blood flow (vertebral blood flow), intravenous administration in anesthetized dogs
Assay type: in vivo
Conditions: Canis lupus familiaris; 0.03 to 0.3 mg/kg intravenous, anesthetized mongrel dogs; calculated from the regression line; read-out: VBF-ED50 (dose which increased the cerebral blood flow by 50%)

With C(=Cc1ccccc1)CN1CCN(C(c2ccccc2)c2ccccc2)CC1 [Cinnarizine, reference compound] the ED50 was > 0.3 mg/kg.
